This series has as its system VEGF-165. In words: EMSA. To be noted: PBS + 0.005% Tween 20, pH 7.4 (+50 mM KCl for aptamer B), 2.5 nM aptamer heated at 90 C and cooled, recombinant protein, protein details: His-tag, label: 5' fluorescein, folded or branched DNA. A general note: In EMSA bound probe runs differently from free probe, usually more slowly.

The exact form of at least one protein or probe is not confirmed. At least one verdict rests on a figure or table, not on a statement of the authors.

“GCCCGTCTTCCAGACAAGAGTGCAGGGCTTTTTTTTTTGCCCGTCTTCCAGACAAGAGTGCAGGGC [AT10A]”: the binding result (10 nM VEGF-165, below AT20A) is recorded as “binds”.
“GCCCGTCTTCCAGACAAGAGTGCAGGGCTTTTTTTTTTTTTTTTTTTTAGGTCGACGGTCACGCGACTGCGCATCA [AT20Am (second domain scrambled)]”: the binding result (1:1 complex only, 1:2 complex absent (0, 10, 125 nM)) is given as “binds”.
Regarding “GCCCGTCTTCCAGACAAGAGTGCAGGGCGCCCGTCTTCCAGACAAGAGTGCAGGGC [AT0A]”, the binding result (10 nM VEGF-165, below AT20A) is “binds”.
Take TGTGGGGGTGGACTGGGTGGGTACC [fB (3R02)]: the Kd (50 mM KCl added) was more than 1500 nM.
CAATTGGGCCCGTCCGTATGGTGGGT [fC (SL2-B)]: the binding signal (fraction bound) (10 nM VEGF-165) worked out at 0.01. Besides, the Kd (25 nM nfA competitor, apparent Kd) was found to be 135 nM.
For “GCCCGTCTTCCAGACAAGAGTGCAGGGCTTTTTTTTTTTTTTTTTTTTTTTTTTTTTTGCCCGTCTTCCAGACAAGAGTGCAGGGC [AT30A]”, the binding result (10 nM VEGF-165, below AT20A) is reported as “binds”.

These data come from publication PMC6883073.
